Here are results for four molecules from PubChem BioAssay (NCATS).

Test [1] is described as follows: Validation of Assay for Modulators of Lamin A Splicing (AID 1459). As to conditions: Lamin A splicing dual RFP/GFP fluorescence reporter, ratio. Put shortly:
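Splicing correction is reported by an EGFP-containing lamin A minigene in stably transfected S3 HeLa cells, while DsRed2 controls for viability and nonspecific signal. Cells are exposed to compounds for 48 hrs before the GFP over RFP ratio is taken.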

Test [2] can be described thus: qHTS Assay for Lipid Storage Modulators (AID 1519). As to conditions: Drosophila S3 cells, BODIPY lipid droplet/cell ratio, laser cytometry, cells loaded with oleic acid. The method, boiled down: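 Cells seeded at 5,000 per well were treated with compounds over a concentration series and loaded with oleic acid (400 uM, as added). Lipid droplet fluorescence (488 nm excitation, 500-530 nm channel) was read by laser-scanning cytometry and normalized to 20 uM Triacsin C.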
For orientation: qHTS replaces the single test concentration by a dilution series.

Test [3] is described as follows: qHTS Assay for Modulators of Human Peripheral Myelin Protein 22 (PMP22) Expression/Activity (AID 1967). As to conditions: Cell-based PMP22 reporter, dual-color luciferase ratio. Put shortly:
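Quantitative HTS in a mouse Schwann cell line expressing dual click beetle luciferases: Pmp22 promoter (green) and control EF-alpha promoter (red). After 24h treatment, corrected green/red signal ratio gave %Activity relative to untreated cells.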

Test [4] in a line: qHTS Validation Assay to Find Inhibitors of Chronic Active B-Cell Receptor Signaling (AID 485345). As to conditions: ABC-DLBCL cells, chronic BCR signaling reporter; measured here: CBR control luciferase (viability counter). Put shortly:
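TMD8 ABC-DLBCL cells with dox-inducible green luciferase–IκBα fusion and red native luciferase; compounds 46 uM–3 nM, 4 h at 37C with doxycycline in 0.5% FBS IMDM. Green/red ratio normalized to basal and 10 uM MG-132.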

A short description of test [5]: Nrf2 qHTS screen for inhibitors: Validation (AID 493153). To be noted: A549 ARE-Fluc reporter, 18-24 h; AC50: CellTiter-Fluor fluorescence read, measured here: cytotoxicity CellTiter-Fluor AC50; viability change: measured here: cytotoxicity max response. Put shortly: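 A549 cells carrying an ARE-driven firefly luciferase reporter, in 5% FBS OPTI-MEM, were treated with compounds in concentration-response for 18-24 h at 37°C. Viability was read by CellTiter-Fluor fluorescence, then Nrf2 activity by luciferase luminescence.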

The nature of test [6]: qHTS assay for small molecule antagonists of androgen receptor signaling (AID 588516). To be noted: AR-UAS-bla HEK293, beta-lactamase ratio, antagonist mode, 16 h. The method, boiled down: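 Antagonist-mode qHTS: inhibition of R1881 (10 nM)-driven beta-lactamase expression in GripTite HEK 293 cells is measured after 16 h; values are Hill-derived IC50s normalized between R1881 and DMSO wells.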

A short description of test [7]: qHTS assay for small molecule antagonists of peroxisome proliferator-activated receptor delta signaling (AID 588535).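 Further: cells co-treated with a PPAR-delta agonist as stimulator during compound exposure.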 To be noted: HEK293T PPARd-UAS-bla, beta-lactamase FRET ratio, 18 h; 460 nm channel. The method, boiled down:
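GeneBLAzer PPAR-delta-UAS-bla HEK293T cells in medium with 2% charcoal/dextran FBS were preincubated 5 hrs at 37 C, then given compounds, incubated 18 hrs at 37 C, and read by CCF4 beta-lactamase fluorescence; IC50 from Hill fits.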

Test [8] is described as follows: qHTS assay for small molecule antagonists of vitamin D receptor signaling (AID 588541). As to conditions: HEK293T VDR-UAS-bla, beta-lactamase ratio, antagonist mode; measured here: W460 blue channel (cell viability).
Test [9] is described as follows: qHTS assay for small molecule agonists of retinoid X receptor alpha signaling (AID 588544). As to conditions: HEK293T RXRa-UAS-bla, beta-lactamase reporter, 18 h; 530 nm emission.
A short description of test [10]: A High-Content qHTS Against Drug Library for the Identification of Small Molecules that Inhibit DYT1 Early Onset Primary Dystonia-Associated Cell Pathology (AID 1645839). As to conditions: HEK293 Flp-In EGFP-delE TorsinA, punctate imaging, 48 h; measured here: cell count cytotoxicity. The method, boiled down:
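Readout: %pathology, the punctate EGFP-TorsinA distribution from imaging, as the primary channel and cell count as the toxicity counterscreen. HEK293 Flp-In cells expressing delE TorsinA were induced with tetracycline and treated with compound for 48 h.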

The nature of test [11]: NCATS anti-infectives library activity on the primary C. elegans qHTS viability assay (AID 1745855). As to conditions: C. elegans worm area imaging, day 7, measured here: worm number. The method, boiled down: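 Viability is taken from GFP fluorescence of PE254-GFP-FLuc C. elegans imaged by laser cytometry over 7 days. Ten L1 worms per well grow at 21 °C on TOP10 E. coli capsules with titrated compound; levamisole marks toxicity.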

The nature of test [12]: qHTS drug screen for cell cycle checkpoint inhibitors in PARPi-resistant BRCA-mutant ovarian cancer cell lines. (AID 1963452). As to conditions: PEO1/OlaR viability, CellTiter-Glo luminescence, 96 h. Put shortly:
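PEO1, PEO4 and PEO1/OlaR ovarian cancer cells, 600 per well, exposed 96 h at 37C to a dilution series. Viability read by CellTiter-Glo luminescence, normalized to DMSO and empty wells; activity summarized as Z-AUC.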

Test [13] is described as follows: qHTS for identification of novel therapeutic agents for treatment of microphthalmiaassociated transcription factor (MiT) renal cell carcinoma (RCC) (AID 1963991). To be noted: CellTiter-Glo, 48 h; for z-score: stronger effect = lower value. Put shortly: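 Three TFE3-fusion RCC lines (UOK109, UOK124, UOK145), 500 cells/well in complete medium, were treated with MIPE 4.0 compounds for 48 hours at 37 C. Viability was by CellTiter-Glo luminescence, normalized to DMSO (100%) and empty wells (0%); curves fitted over 11 concentrations.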

The nature of test [14]: S16 Schwann cell PMP22 intronic element beta-lactamase assay (AID 624044). To be noted: S16 rat Schwann cells, PMP22 element beta-lactamase FRET, 24 h. The method, boiled down: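 Rat S16 Schwann cells with beta-Lac driven by a PMP22 intronic element, compound-treated 24 h at 37 °C. LiveBLAzer FRET B/G read: 460 nm normalized to potassium clavulanate vs DMSO; 535 nm FRET as viability; concentration-effect curves classified.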

Setting [15] is: measured here: cell count channel max response.
The mark [16] stands for this setting: measured here: lipid channel max response.
Where [17] appears, read: measured here: green reporter channel AC50, mouse Pmp22 promoter in mouse Schwann cells.
Setting [18] is: measured here: red reporter channel AC50, EF-alpha promoter control reporter in MSC80 mouse Schwann cells.
Setting [19] is: measured here: PEO1 parental viability.

Molecules are shown by their SMILES. Values joined by “and” are separate entries in the source; they are usually repeats but may differ in a detail not shown here. Equal entries are not always repeated. This is one part of the list. Further columns of the screen follow, without active or inactive calls. For part of these data: Most of these compounds were active or inconclusive in the main read-out, so they are no random draw. For part of these data: The note in brackets gives the kind of curve behind each potency; many fits are weak.

As usually defined, the AC50 is the concentration at which the activity in the assay is half-maximal.

In the case of `Nc1ncn([C@@H]2O[C@H](CO)[C@@H](O)[C@H]2O)c(=O)n1`, the AC50 in [1] (measured here: GFP channel) was 7.94 µM [falling, partial curve]; in test [1] (measured here: RFP channel), 3.16 µM [falling, full curve]; in [3] (setting [17]), 37.9 µM [falling, partial curve]; in test [3] (setting [18]), 30.1 µM [falling, partial curve]; in test [4], 3.66 µM [rising, full curve]; in test [5] it was 4.11 µM [falling, full curve]. Further, the AC50 is 7.94 µM [falling, partial curve] and 1.41 µM [falling, full curve] in [6] (measured here: W460 blue channel fit); 4.47 µM [rising, full curve] in test [6] (measured here: W530 green channel, cytotoxicity/artifact); 17.8 µM [falling, partial curve, poor fit] in [8]; 7.94 µM [falling, partial curve, poor fit] in test [10]; 32.5 µM [falling, single point] in test [11]; 17.4 µM [falling, partial curve] in test [12] (setting [19]). Besides, the AC50 in [12] (measured here: PEO4 viability) is 11 µM [falling, partial curve]. The max response in test [2] (setting [15]) is 53.9%; in test [2] (setting [16]) it was 55%; in [7], -67.7% and 5.7%; in test [9], 1.27%. Further, the viability change in [5] was -37%.

With `COc1cc2c(cc1O)CCC1C2CC[C@]2(C)[C@@H](O)CC[C@@H]12` (some centres not stated), the AC50 was 10 µM [falling, partial curve, poor fit] in test [1] (measured here: GFP channel); 10 µM [falling, partial curve, poor fit] in test [1] (measured here: RFP channel); 2.69 µM [falling, full curve] in test [3] (setting [18]). Further, the max response in [2] (setting [15]) was -23.8%; in [2] (setting [16]), -45.9%.

Turning to `Cn1cnc([N+](=O)[O-])c1Sc1ncnc2nc[nH]c12`, the AC50 was 11.2 µM [rising, single point] in test [1] (measured here: GFP channel); 11.2 µM [rising, single point] in test [1] (measured here: RFP channel); 47.8 µM [falling, partial curve] in [3] (setting [18]); 0.692 µM [falling, full curve] in [12] (setting [19]); 0.616 µM [falling, full curve] in [12] (measured here: PEO4 viability); 0.833 µM [falling, full curve] in test [13] (TFE3-RCC viability, measured here: UOK124 cell viability). Moreover, the AC50 in [13] (TFE3-RCC viability, measured here: UOK145 cell viability) is 5.9 µM [falling, partial curve]. In addition, the max response was 39.4% and 115% in test [7]; 4.89% and 28.1% in test [9]. Besides, the z-score in test [13] (TFE3-RCC UOK109 viability, measured here: UOK109 Z-AUC) was -0.606; in [13] (TFE3-RCC viability, measured here: UOK124 Z-AUC), -1.1; in [13] (TFE3-RCC viability, measured here: UOK145 Z-AUC) it was -0.904.

On to `COCC(=O)O[C@]1(CCN(C)CCCc2nc3ccccc3[nH]2)CCc2cc(F)ccc2[C@@H]1C(C)C`, for which the AC50 in test [1] (measured here: GFP channel) was 22.4 µM [falling, partial curve]; in test [1] (measured here: RFP channel), 25.1 µM [falling, single point]; in [3] (setting [17]), 21.3 µM [falling, full curve]; in test [3] (setting [18]) it was 19 µM [falling, full curve, poor fit]; in test [14] (measured here: 460 nm blue channel), 25.1 µM [falling, partial curve]; in [14] (measured here: 530 nm viability channel), 28.2 µM [rising, single point]. Further, the AC50 in test [10] was 6.31 µM [falling, partial curve, poor fit].
